Measured values from article PMC9192632.

By UniProt entry, the sequences of proteins in these tests, tags left out.
UniProt O60488: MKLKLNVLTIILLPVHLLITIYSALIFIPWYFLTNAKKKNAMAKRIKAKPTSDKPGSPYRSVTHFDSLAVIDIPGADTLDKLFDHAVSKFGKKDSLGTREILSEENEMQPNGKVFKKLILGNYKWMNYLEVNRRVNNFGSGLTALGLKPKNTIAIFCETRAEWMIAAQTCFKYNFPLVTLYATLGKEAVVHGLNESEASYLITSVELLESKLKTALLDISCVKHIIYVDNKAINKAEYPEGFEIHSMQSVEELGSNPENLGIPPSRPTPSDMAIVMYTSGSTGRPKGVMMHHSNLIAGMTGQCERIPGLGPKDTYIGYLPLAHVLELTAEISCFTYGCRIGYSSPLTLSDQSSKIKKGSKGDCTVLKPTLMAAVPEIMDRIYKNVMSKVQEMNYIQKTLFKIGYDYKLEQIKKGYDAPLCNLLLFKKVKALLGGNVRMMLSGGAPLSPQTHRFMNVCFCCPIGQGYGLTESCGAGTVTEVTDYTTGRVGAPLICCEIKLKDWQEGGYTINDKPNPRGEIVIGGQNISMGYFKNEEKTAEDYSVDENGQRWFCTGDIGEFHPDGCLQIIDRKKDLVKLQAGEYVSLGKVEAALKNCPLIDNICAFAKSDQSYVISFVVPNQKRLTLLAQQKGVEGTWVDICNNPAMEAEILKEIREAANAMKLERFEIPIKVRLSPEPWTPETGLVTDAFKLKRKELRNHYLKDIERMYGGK
UniProt O00429: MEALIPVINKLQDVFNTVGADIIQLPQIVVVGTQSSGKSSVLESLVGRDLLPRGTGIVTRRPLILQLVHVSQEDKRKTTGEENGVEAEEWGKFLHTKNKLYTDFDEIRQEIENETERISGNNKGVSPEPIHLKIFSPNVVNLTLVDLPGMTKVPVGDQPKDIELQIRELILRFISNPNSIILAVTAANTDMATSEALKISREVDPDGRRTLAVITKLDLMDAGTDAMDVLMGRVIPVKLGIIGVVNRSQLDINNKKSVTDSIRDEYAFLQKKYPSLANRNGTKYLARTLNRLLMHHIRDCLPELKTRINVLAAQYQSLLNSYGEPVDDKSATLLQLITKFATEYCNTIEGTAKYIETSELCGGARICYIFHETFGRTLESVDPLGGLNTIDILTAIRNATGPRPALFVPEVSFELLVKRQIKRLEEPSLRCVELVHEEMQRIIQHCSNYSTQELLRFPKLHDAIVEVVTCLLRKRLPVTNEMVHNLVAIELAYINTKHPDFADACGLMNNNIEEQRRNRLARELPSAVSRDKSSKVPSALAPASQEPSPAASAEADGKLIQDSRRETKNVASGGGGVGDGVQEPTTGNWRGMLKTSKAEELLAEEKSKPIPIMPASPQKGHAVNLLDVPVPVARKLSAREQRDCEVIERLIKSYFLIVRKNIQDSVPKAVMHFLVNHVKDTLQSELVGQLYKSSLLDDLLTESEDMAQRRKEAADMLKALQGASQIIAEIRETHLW

Molecular target: Acyl-coenzyme A (CoA) synthetase long-chain family member 4 (human (endogenous in PL1 and PG7 patient-derived glioma cells)) (UniProt O60488)
Test: affinity purification with mass spectrometry; Acsl4 pull-down from PL1 cell lysate, SDS-PAGE with silver staining, whole-eluted samples examined by LC-MS/MS; compared with control

binding: binds
Substance: dynamin-related protein 1 (from UniProt O00429 1-736)

Results are given in words; binding and its absence hold for the method and conditions named. Binding seen in cells or lysates may run through a third protein. These calls come from enrichment with a bait or labelling near it, and not all partners need be listed.
